Reference: PMC8762078, “An ALS-associated variant of the autophagy receptor SQSTM1/p62 reprograms binding selectivity toward the autophagy-related hATG8 proteins” (The Journal of Biological Chemistry, 2021)
Results are given in words; binding and its absence hold for the method and conditions named. Some binding calls cover weakened binding; strength is not graded here.

Chains of the proteins cited; added tags and fusions are not shown.
UniProt P60520: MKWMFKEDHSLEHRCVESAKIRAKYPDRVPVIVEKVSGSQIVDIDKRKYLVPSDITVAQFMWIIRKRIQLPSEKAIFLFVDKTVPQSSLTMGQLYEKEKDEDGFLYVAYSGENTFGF

Biological target: p62 L341V-AIM peptide (human)
Test: native MS; ESI-MS competition binding under nondenaturing conditions: each hATG8 titrated into an equimolar mixture of WT-AIM and L341V-AIM peptides (each 10 μM); read-out is the ratio of peak intensities of unbound WT and L341V peptides; ratios given for 20 μM hATG8; two independent experiments; both …

- binding: binds
Substance: GABARAPL2 (from UniProt P60520 1-117)
